Source: publication PMC4683276
Results are given in words; binding and its absence hold for the method and conditions named. Binding seen in cells or lysates may run through a third protein. Binding calls can cover weak binding; strength is not graded here. For some assays here: Where a sequence is shown, tags or fusion partners need not be part of it.

Amino acid sequences for entries named in this document (tags omitted). A change or cut given only in a name is not applied to a line headed by its entry. Residues count along the entry.
UniProt Q13308: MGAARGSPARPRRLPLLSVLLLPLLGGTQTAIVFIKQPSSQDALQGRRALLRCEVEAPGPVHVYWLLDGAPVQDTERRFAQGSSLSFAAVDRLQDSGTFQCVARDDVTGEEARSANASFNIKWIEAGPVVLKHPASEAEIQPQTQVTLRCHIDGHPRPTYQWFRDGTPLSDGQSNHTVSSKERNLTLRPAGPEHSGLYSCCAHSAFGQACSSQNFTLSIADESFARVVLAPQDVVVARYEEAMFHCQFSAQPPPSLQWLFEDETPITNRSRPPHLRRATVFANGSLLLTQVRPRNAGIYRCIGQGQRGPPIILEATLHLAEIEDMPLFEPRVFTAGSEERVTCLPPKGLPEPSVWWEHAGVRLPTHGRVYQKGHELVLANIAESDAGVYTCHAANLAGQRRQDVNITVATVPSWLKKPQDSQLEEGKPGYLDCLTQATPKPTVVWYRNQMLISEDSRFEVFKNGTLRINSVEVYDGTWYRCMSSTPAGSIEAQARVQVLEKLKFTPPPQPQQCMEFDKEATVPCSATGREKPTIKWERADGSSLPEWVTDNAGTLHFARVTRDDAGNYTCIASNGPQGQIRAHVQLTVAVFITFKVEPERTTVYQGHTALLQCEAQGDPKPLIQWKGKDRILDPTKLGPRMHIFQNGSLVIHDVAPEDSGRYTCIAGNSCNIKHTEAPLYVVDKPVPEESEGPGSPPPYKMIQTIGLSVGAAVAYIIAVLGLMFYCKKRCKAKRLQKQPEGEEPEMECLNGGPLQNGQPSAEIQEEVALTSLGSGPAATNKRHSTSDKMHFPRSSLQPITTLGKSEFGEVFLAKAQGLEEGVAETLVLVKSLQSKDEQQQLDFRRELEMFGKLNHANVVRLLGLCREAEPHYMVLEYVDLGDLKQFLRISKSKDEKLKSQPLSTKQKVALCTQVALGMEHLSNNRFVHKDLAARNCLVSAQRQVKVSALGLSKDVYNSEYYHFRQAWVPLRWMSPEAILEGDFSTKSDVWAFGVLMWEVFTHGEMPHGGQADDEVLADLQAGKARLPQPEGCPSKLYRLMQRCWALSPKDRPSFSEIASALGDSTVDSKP
UniProt Q01974, residues 34-943: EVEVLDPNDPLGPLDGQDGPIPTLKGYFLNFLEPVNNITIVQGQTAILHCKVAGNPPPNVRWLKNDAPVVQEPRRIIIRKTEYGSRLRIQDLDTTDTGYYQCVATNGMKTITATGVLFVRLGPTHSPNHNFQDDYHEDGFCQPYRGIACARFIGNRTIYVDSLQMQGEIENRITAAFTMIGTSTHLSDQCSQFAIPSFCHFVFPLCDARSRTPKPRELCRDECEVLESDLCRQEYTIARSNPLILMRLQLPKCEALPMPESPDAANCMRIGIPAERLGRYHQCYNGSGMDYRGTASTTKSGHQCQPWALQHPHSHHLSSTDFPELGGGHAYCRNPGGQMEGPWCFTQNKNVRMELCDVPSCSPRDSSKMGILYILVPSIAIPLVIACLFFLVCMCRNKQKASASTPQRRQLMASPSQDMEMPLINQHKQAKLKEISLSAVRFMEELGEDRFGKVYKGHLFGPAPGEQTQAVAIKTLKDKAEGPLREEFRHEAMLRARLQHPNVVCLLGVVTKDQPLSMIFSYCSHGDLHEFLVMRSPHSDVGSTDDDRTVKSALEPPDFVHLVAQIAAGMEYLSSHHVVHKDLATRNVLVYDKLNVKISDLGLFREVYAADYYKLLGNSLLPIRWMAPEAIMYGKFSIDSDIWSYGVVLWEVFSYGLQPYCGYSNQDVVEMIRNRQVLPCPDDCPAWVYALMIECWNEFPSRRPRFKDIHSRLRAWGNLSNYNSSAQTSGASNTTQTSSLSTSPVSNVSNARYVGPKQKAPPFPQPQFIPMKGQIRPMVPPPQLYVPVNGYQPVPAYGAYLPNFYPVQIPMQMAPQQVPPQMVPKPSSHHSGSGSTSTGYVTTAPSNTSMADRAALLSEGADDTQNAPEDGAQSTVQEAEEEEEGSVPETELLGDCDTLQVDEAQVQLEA

How the values were obtained:
[1] = target: T1, MYC-WNT5A (UniProt P41221); assay: co-IP; full and truncated PTK7 co-expressed with MYC-WNT5A in HEK 293T cells; immunoprecipitation with anti-MYC antibody; Western blot (Fig. 2C)
T1 sequence: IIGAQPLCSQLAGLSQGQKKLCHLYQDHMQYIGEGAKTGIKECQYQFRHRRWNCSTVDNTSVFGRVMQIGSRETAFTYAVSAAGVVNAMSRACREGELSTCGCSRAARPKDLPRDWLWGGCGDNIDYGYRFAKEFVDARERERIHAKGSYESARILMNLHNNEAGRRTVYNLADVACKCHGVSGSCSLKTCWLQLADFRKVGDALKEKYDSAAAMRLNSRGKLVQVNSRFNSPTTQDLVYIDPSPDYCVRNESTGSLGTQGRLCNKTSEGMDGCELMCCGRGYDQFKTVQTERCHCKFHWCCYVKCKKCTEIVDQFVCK

[2] = target: PTK7Δ4–7 (human) (UniProt Q13308); assay: co-IP; co-expression in HEK 293T cells; 1% Triton X-100 lysis buffer (50 mM Hepes, 150 mM NaCl); immunoprecipitation with anti-PTK7 antibody and protein G-agarose; Western blot (Fig. 1A, C, D)
[3] = target: PTK7Δ1–3 (human) (UniProt Q13308); assay: as above
[4] = target: PTK7 ΔKN (human) (UniProt Q13308); assay: as above

Row | binding [1] | binding [2] | binding [3] | binding [4] | Substance
1 | binds |  |  |  | PTK7Δ4–7 (from UniProt Q13308) (receptor)
2 | binds |  |  |  | PTK7Δ1–3 (from UniProt Q13308) (receptor)
3 |  | binds | binds | binds | FLAG-ROR2 (receptor tyrosine kinase-like orphan receptor 2) (from UniProt Q01974 34-943)
